Source: the supplement of paper PMC4604168 (melanoma cell lines)
The other results are listed elsewhere or left out. Repeats are few or missing, and single values can be far off.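 Imaging used 1,536-well plates; nuclei positive for cleaved PARP by antibody were divided by total DNA-stained nuclei to yield the apoptosis fraction. Doses for screening kept most cells viable, and cell lines differ markedly in resting and induced cleaved-PARP levels.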

Tests used:
Assay in all cases: cleaved PARP positive nuclei fraction relative to DMSO control; melanoma cells; higher = more apoptosis
Conditions in all cases: library dose: low library concentration; 72 h
501Mel = tested on: 501Mel
A101D = tested on: A101D
A2058 = tested on: A2058
A375 = tested on: A375
C32 = tested on: C32
CBRC008 = tested on: CBRC008 (line from a melanoma biopsy)
CBRC013 = tested on: CBRC013 (line from a melanoma biopsy)
CBRC014 = tested on: CBRC014 (line from a melanoma biopsy)
CBRC016 = tested on: CBRC016 (line from a melanoma biopsy)
CBRC017 = tested on: CBRC017 (line from a melanoma biopsy)
COLO792 = tested on: COLO792
COLO800 = tested on: COLO800
COLO829 = tested on: COLO829
G361 = tested on: G361
IPC-298 = tested on: IPC-298
IST-MEL1 = tested on: IST-MEL1
LB2518-MEL = tested on: LB2518-MEL
LOXIMVI = tested on: LOXIMVI
MEL-HO = tested on: MEL-HO

Compound | cleaved PARP positive nuclei fraction (501Mel) | cleaved PARP positive nuclei fraction (A101D) | cleaved PARP positive nuclei fraction (A2058) | cleaved PARP positive nuclei fraction (A375) | cleaved PARP positive nuclei fraction (C32) | cleaved PARP positive nuclei fraction (CBRC008) | cleaved PARP positive nuclei fraction (CBRC013) | cleaved PARP positive nuclei fraction (CBRC014) | cleaved PARP positive nuclei fraction (CBRC016) | cleaved PARP positive nuclei fraction (CBRC017) | cleaved PARP positive nuclei fraction (COLO792) | cleaved PARP positive nuclei fraction (COLO800) | cleaved PARP positive nuclei fraction (COLO829) | cleaved PARP positive nuclei fraction (G361) | cleaved PARP positive nuclei fraction (IPC-298) | cleaved PARP positive nuclei fraction (IST-MEL1) | cleaved PARP positive nuclei fraction (LB2518-MEL) | cleaved PARP positive nuclei fraction (LOXIMVI) | cleaved PARP positive nuclei fraction (MEL-HO)
CC(C)C[C@H](NC(=O)[C@H](Cc1ccccc1)NC(=O)c1cnccn1)B(O)O [Bortezomib] + CC(C)(C)c1cnc(CSc2cnc(NC(=O)C3CCNCC3)s2)o1 [SNS-032] (first compound 0.001 µM, partner dose 0.01 µM) | 584% | 267% | 148% | 85.4% | 91.6% | 659% | 132% | 246% | 284% | 251% | 65.1% | 137% | 106% | 3050% | 78.9% | 34.1% | 251% | 166% | 74.5%
Nc1ncn([C@H]2C[C@H](O)[C@@H](CO)O2)c(=O)n1 [decitabine] + Cc1ccc(NC(=O)c2cccc(N(C)C)c2)cc1NC(=O)c1ccc(O)cc1 [ZM336372] (first compound 0.1 µM, partner dose 2 µM) | 105% | 45.8% | 111% | 119% | 73.9% | 130% | 80.8% | 105% | 177% | 126% | 191% | 109% | 110% | 51.9% | 75.6% | 101% | 304% | 80.5% | 361%
C=C(c1ccc(C(=O)O)cc1)c1cc2c(cc1C)C(C)(C)CCC2(C)C [Bexarotene] + COc1cc2c(Oc3ccc4[nH]c(C)cc4c3F)ncnc2cc1OCCCN1CCCC1 [cediranib] (first compound 2 µM, partner dose 0.4 µM) | 173% | 89% | 197% | 29.1% | 181% | 50% | 135% | 110% | 164% | 96.8% | 46.9% | 45.3% | 185% | 104% | 83.6% | 131% | 96.8% | 50.3% | 110%
Nc1ccn([C@@H]2O[C@H](CO)[C@@H](O)C2(F)F)c(=O)n1 [gemcitabine] + CO[C@@H]1[C@H](N(C)C(=O)c2ccccc2)C[C@H]2O[C@]1(C)n1c3ccccc3c3c4c(c5c6ccccc6n2c5c31)C(=O)NC4 [Midostaurin] (first compound 0.0004 µM, partner dose 0.08 µM) | 74% | 83.8% | 83.8% | 55.2% | 35.4% | 42.4% | 126% | 125% | 484% | 116% | 93.4% | 71.2% | 123% | 143% | 26.5% | 90.9% | 291% | 77% | 32.8%
Cc1cc(Nc2cc(N3CCN(C)CC3)nc(/C=C/c3ccccc3)n2)n[nH]1 + CO[C@@H]1[C@H](N(C)C(=O)c2ccccc2)C[C@H]2O[C@]1(C)n1c3ccccc3c3c4c(c5c6ccccc6n2c5c31)C(=O)NC4 [Midostaurin] (first compound 0.04 µM, partner dose 0.08 µM) | 87.3% | 66% | 94.7% | 169% | 315% | 131% | 108% | 88.2% | 205% | 105% | 95.7% | 117% | 64.3% | 235% | 31.8% | 69% | 160% | 295% | 61.8%
Cc1cc(Nc2cc(N3CCN(C)CC3)nc(/C=C/c3ccccc3)n2)n[nH]1 + CC(C)(C)c1cnc(CSc2cnc(NC(=O)C3CCNCC3)s2)o1 [SNS-032] (first compound 0.04 µM, partner dose 0.01 µM) | 175% | 43% | 228% | 391% | 77% | 37.5% | 125% | 85.2% | 129% | 106% | 47.1% | 186% | 110% | 294% | 92.7% | 154% | 353% | 173% | 127%
C=C(c1ccc(C(=O)O)cc1)c1cc2c(cc1C)C(C)(C)CCC2(C)C [Bexarotene] + Cn1cncc1[C@@](N)(c1ccc(Cl)cc1)c1ccc2c(c1)c(-c1cccc(Cl)c1)cc(=O)n2C [tipifarnib] (first compound 2 µM, partner dose 0.01 µM) | 177% | 35.5% | 65.6% | 42.8% | 259% | 113% | 81.2% | 146% | 826% | 107% | 49.5% | 60.4% | 123% | 59.2% | 95.1% | 66.7% | 83.5% | 235% | 73.4%
CS(=O)(=O)CCNCc1ccc(-c2ccc3ncnc(Nc4ccc(OCc5cccc(F)c5)c(Cl)c4)c3c2)o1 [lapatinib] + CN(C)S(=O)(=O)c1ccc2c(c1)/C(=C/c1cc3c([nH]1)CCCC3)C(=O)N2 [SU6656] (first compound 0.8 µM, partner dose 0.4 µM) | 177% | 452% | 367% | 126% | 93.7% | 61.9% | 229% | 99.5% | 125% | 59.2% | 154% | 152% | 38.4% | 90.3% | 43% | 110% | 44.5% | 347% | 132%
Cn1c(=O)n(-c2ccc(C(C)(C)C#N)cc2)c2c3cc(-c4cnc5ccccc5c4)ccc3ncc21 + NCC(=O)Nc1ccc(-n2nc(C(F)(F)F)cc2-c2ccc3c(ccc4ccccc43)c2)cc1 [OSU03012] (first compound 0.004 µM, partner dose 1 µM) | 198% | 111% | 143% | 1580% | 150% | 37.2% | 116% | 64.7% | 92.1% | 75.8% | 109% | 88.3% | 40.2% | 60.8% | 42.7% | 113% | 121% | 105% | 44.5%
